From patent EP1987837A1 (Technische Universität Dresden Medizinische Fakultät Carl …, dated 2008)
Results are given in words; binding and its absence hold for the method and conditions named. In cells and extracts the contact can be indirect. Some binding calls cover weakened binding; strength is not graded here. Tags and fused reporters may be left off the sequences shown.

T1: GST-ICA512601-979 (Homo sapiens (Human)) (UniProt Q16849)
T1 sequence: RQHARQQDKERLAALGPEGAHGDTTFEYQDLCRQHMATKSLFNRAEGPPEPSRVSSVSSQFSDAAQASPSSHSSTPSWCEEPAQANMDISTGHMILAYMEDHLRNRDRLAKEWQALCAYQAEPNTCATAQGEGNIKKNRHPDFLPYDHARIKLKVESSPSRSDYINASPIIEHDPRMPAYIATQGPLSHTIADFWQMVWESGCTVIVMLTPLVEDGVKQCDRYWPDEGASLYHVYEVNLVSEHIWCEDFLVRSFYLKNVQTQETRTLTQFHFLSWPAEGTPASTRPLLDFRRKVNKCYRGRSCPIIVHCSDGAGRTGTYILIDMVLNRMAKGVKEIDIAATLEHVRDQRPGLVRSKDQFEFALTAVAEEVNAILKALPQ

T2: GST-ICA512663-979 (Homo sapiens (Human)) (UniProt Q16849)
T2 sequence: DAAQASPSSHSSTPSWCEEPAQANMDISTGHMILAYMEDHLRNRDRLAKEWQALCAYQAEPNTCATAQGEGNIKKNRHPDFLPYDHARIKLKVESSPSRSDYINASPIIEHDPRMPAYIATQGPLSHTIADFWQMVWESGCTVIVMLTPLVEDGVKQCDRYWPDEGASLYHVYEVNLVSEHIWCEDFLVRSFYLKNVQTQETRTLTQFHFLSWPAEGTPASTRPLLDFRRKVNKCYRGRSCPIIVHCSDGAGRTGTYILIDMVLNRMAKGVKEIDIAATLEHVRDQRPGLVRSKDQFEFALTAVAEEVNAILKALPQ

T3: GST-ICA512700-959 (Homo sapiens (Human)) (UniProt Q16849)
T3 sequence: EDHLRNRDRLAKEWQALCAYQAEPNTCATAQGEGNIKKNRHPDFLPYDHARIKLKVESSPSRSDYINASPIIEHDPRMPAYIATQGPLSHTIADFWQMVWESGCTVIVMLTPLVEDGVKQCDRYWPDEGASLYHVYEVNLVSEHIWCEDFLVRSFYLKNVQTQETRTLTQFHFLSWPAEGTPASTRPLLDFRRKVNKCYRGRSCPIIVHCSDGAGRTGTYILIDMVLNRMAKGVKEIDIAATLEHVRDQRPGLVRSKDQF

T4: GST-ICA512700-979 (Homo sapiens (Human)) (UniProt Q16849)
T4 sequence: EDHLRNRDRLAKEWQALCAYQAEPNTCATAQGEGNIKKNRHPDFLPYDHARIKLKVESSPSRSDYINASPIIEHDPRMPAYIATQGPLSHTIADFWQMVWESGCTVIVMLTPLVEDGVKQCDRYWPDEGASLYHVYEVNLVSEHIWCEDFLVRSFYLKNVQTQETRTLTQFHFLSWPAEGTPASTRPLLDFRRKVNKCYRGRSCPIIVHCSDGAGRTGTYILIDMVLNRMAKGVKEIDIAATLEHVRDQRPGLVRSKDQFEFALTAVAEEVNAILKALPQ


Legend:
[1] = biological target: T1, GST-ICA512601-979 (Homo sapiens (Human)); test: GST pull-down with rising ICA512601-979-His in the presence of 35S-β2-syntrophin, anti-His blot
[2] = biological target: T1, GST-ICA512601-979 (Homo sapiens (Human)); test: GST pull-down of purified bacterial proteins, anti-His blot
[3] = biological target: T2, GST-ICA512663-979 (Homo sapiens (Human)); test: as above
[4] = biological target: T1, GST-ICA512601-979 (Homo sapiens (Human)); test: GST pull-down, SDS-PAGE and autoradiography
[5] = biological target: T2, GST-ICA512663-979 (Homo sapiens (Human)); test: GST pull-down, SDS-PAGE and autoradiography
[6] = biological target: T3, GST-ICA512700-959 (Homo sapiens (Human)); test: GST pull-down, SDS-PAGE and autoradiography
[7] = biological target: T4, GST-ICA512700-979 (Homo sapiens (Human)); test: GST pull-down, SDS-PAGE and autoradiography

Row | binding [1] | binding [2] | binding [3] | binding [4] | binding [5] | binding [6] | binding [7] | Binder
1 | binds | binds | binds |  |  |  |  | ICA512601-979-His (protein) RQHARQQDKERLAALGPEGAHGDTTFEYQDLCRQHMATKSLFNRAEGPPEPSRVSSVSSQFSDAAQASPSSHSSTPSWCEEPAQANMDISTGHMILAYMEDHLRNRDRLAKEWQALCAYQAEPNTCATAQGEGNIKKNRHPDFLPYDHARIKLKVESSPSRSDYINASPIIEHDPRMPAYIATQGPLSHTIADFWQMVWESGCTVIVMLTPLVEDGVKQCDRYWPDEGASLYHVYEVNLVSEHIWCEDFLVRSFYLKNVQTQETRTLTQFHFLSWPAEGTPASTRPLLDFRRKVNKCYRGRSCPIIVHCSDGAGRTGTYILIDMVLNRMAKGVKEIDIAATLEHVRDQRPGLVRSKDQFEFALTAVAEEVNAILKALPQHHHHHH
2 |  |  |  | binds | binds | binds | binds | 35S-ICA512700-979 (protein, 35S-methionine labelled) EDHLRNRDRLAKEWQALCAYQAEPNTCATAQGEGNIKKNRHPDFLPYDHARIKLKVESSPSRSDYINASPIIEHDPRMPAYIATQGPLSHTIADFWQMVWESGCTVIVMLTPLVEDGVKQCDRYWPDEGASLYHVYEVNLVSEHIWCEDFLVRSFYLKNVQTQETRTLTQFHFLSWPAEGTPASTRPLLDFRRKVNKCYRGRSCPIIVHCSDGAGRTGTYILIDMVLNRMAKGVKEIDIAATLEHVRDQRPGLVRSKDQFEFALTAVAEEVNAILKALPQ
3 |  |  |  | binds | binds | binds | binds | 35S-ICA512601-979 (protein, 35S-methionine labelled) RQHARQQDKERLAALGPEGAHGDTTFEYQDLCRQHMATKSLFNRAEGPPEPSRVSSVSSQFSDAAQASPSSHSSTPSWCEEPAQANMDISTGHMILAYMEDHLRNRDRLAKEWQALCAYQAEPNTCATAQGEGNIKKNRHPDFLPYDHARIKLKVESSPSRSDYINASPIIEHDPRMPAYIATQGPLSHTIADFWQMVWESGCTVIVMLTPLVEDGVKQCDRYWPDEGASLYHVYEVNLVSEHIWCEDFLVRSFYLKNVQTQETRTLTQFHFLSWPAEGTPASTRPLLDFRRKVNKCYRGRSCPIIVHCSDGAGRTGTYILIDMVLNRMAKGVKEIDIAATLEHVRDQRPGLVRSKDQFEFALTAVAEEVNAILKALPQ
